Measurements from PubChem BioAssay AID2417 (National Center for Advancing Translational Sciences (NCATS), 2010).
Hit rate of the full screen: of about 140,000 compounds, about 4,300 (3.1%) were called active. The inconclusive results got no clear call from the source; some entries with a clear call stand among them for comparison.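 How the source made its calls: active means readout at or below -70, meaning at least 70% loss of cells showing the perinucleolar compartment, a nuclear body marking cancer cells; inconclusive means readout between -30 and a set limit; inactive means the rest.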

Assay: High Content Assay for Compounds that inhibit the Assembly of the Perinucleolar Compartment;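 further: plate controls were DMSO wells for no effect and camptothecin positive control wells for full effect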
Settings: PC3M PTB-GFP, PNC prevalence imaging, 16 h; at 10 µM; stronger effect = lower value
Method in brief: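 PC3M cells stably expressing PTB-GFP, 750–1000 cells/well, treated 16 h at 37 °C with compound (23 nl of library stock), in duplicate. After paraformaldehyde fixation and Hoechst stain, imaged at 20x; PNC prevalence scored by image analysis.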

| Compound | activity change (PNC), negative = inhibition |
| --- | --- |
| COc1ccccc1NC(=O)C(CCS(C)(=O)=O)N1C(=O)c2ccccc2C1=O (stereo unspecified) | inactive: -16.2% |
| CC1CCC2(CC1)SCC(=O)N2c1ccccc1 (stereo unspecified) | inconclusive: -30.8% |
| CCOC(=O)c1[nH]c2c(c1-c1ccccc1)C(=O)CC(c1ccc(OC)c(OC)c1)C2 (stereo unspecified) | inactive: 22.4% |
| O=c1[nH]c(=O)n(CCO)c2nnn(Cc3ccccc3)c12 | inconclusive: -60.5% |
| Cc1cccc(C)c1NC(=O)C(c1ccccc1)N1CCOCC1 (stereo unspecified) | inconclusive: -38.9% |
| CCCCC1CCC(/C(N)=N/O)CC1 (stereo unspecified) | inconclusive: -36.5% |
| Cc1noc(NS(=O)(=O)c2ccc(N/C=C/C(=O)c3ccncc3)cc2)c1C | inconclusive: -59.1% |
| Cc1ccc(-n2c(O)c(C=Nc3cc(C)on3)c3ccccc3c2=O)c(C)c1 | inconclusive: -43.8% |
| O=C(/C=C/NCC(=O)c1ccccc1)c1ccc(Br)cc1 | active: -97.1% |
| CC1=NN(C(=O)Cn2ccc([N+](=O)[O-])n2)C(O)(C(F)(F)F)C1 (stereo unspecified) | inconclusive: -32.3% |
| c1ccc(-c2csc(Nc3cccnc3)n2)nc1 | inactive: -8.94% |
| CC1CCN(C(=S)c2ccc([N+](=O)[O-])cc2)CC1 | inactive: -8.21% |
| CC(=O)NC(CCS(C)(=O)=O)C(=O)Nc1cc(C)ccc1C (stereo unspecified) | inconclusive: -49.6% |
| CCOC(=O)c1c(C)c(C(=O)NCc2ccccn2)c(C)n1C | inconclusive: -55.9% |
| Cc1occc1-c1nnc(SCC(=O)Nc2nc(C(C)(C)C)cs2)o1 | inconclusive: -51.7% |
| COc1ccc(CN2C(=O)c3ccccc3C2=O)cc1C(=O)OC(C)C(=O)NC(N)=O (stereo unspecified) | inconclusive: -75.4% |
| CCOC(=O)c1[nH]c2ccc(OC)cc2c1NC(=S)N1CCN(c2cccc(Cl)c2)CC1 | inconclusive: -43.7% |
| Cc1cc(C(=O)N/N=C/c2cccnc2)c(C)o1 | inactive: -17.9% |
| CCC(=O)Nc1cc(Cl)ccc1N1CCN(C(=O)CC)CC1 | inconclusive: -42.1% |
| CCOC(=O)Cn1nnnc1C(CC)N(Cc1cc2c(C)cc(C)cc2[nH]c1=O)C1CCCC1 (stereo unspecified) | inconclusive: -32.7% |
| O=C(CSCc1cnn(-c2ccccc2)c1-n1cccc1)NCC1CCCO1 (stereo unspecified) | inconclusive: -54.6% |
| Cc1ccccc1CSCC(Nc1ccc(C(=O)O)cc1[N+](=O)[O-])C(=O)O (stereo unspecified) | inconclusive: -47.8% |
| CC(OC(=O)c1ccncc1)C(=O)Nc1cccc(Cl)c1 (stereo unspecified) | inconclusive: -58.9% |

| Compound | activity change (PNC), negative = inhibition |
| --- | --- |
| O=C(CNC(=O)c1ccccc1)NCCc1nc2ccccc2[nH]1 | inconclusive: -32.9% |
| O=C(O)C1(P(=O)(c2ccccc2)c2ccccc2)CCC1 | inconclusive: -33% |
| Cc1ccc(C)c(NC(=S)NCc2cccn2C)c1 | inconclusive: -39.3% |
| Cc1cc(C)c(C)c(OCCCN(C)C)c1 | inactive: 10.9% |
| CC(=O)OCc1cc2cc(C)ccc2[nH]c1=O | inconclusive: -69.2% |
| COc1ccc(-n2cnc3c(cnn3CCC#N)c2=N)cc1 | inconclusive: -40.3% |
| CS(=O)(=O)N(CC(=O)NCc1ccco1)c1ccc(Cl)c(C(F)(F)F)c1 | inconclusive: -38.5% |
| CCOc1ccc(C(=O)N(Cc2ccc(OC)cc2)Cc2cc3cc(OC)ccc3[nH]c2=O)cc1 | inconclusive: -46.6% |
| Cc1ccc(NC(=O)CN(C)CC(=O)Nc2ccc(N3CCOCC3)cc2)c([N+](=O)[O-])c1 | inconclusive: -31.5% |
| CCOc1cc(S(=O)(=O)n2c(C)nc3ccccc32)ccc1F | inconclusive: -69.9% |
| CCCCn1c(=O)c2ccccc2c2ccccc2c1=O | inactive: 0.965% |
| c1ccc(-c2cc(N3CCCCC3)nc(-c3ccccc3)n2)cc1 | inconclusive: -69.1% |
| CC(=O)c1cc(-c2ccccc2)n(CC(=O)Nc2cc(C)cc(C)c2)c1C | inconclusive: -61.6% |
| CC(C)C(c1nnnn1Cc1ccccc1)N(CCCO)Cc1cc2cc3c(cc2[nH]c1=O)OCO3 (stereo unspecified) | inconclusive: -31.5% |
| CCCOc1ccc(C(=O)Nc2nc(C)c(Cc3ccc4c(c3)OCO4)s2)cc1 | inconclusive: -49.1% |
| CCn1c(=O)c([N+](=O)[O-])c(N2CCOCC2)c2ccccc21 | inconclusive: -52.6% |
| CCCn1c(C(C)NC(C)=O)nc2ccccc21 (stereo unspecified) | inconclusive: -57.1% |
| CCn1ncc(Cl)c1C(=O)Nc1cc(Cl)ccc1Cl | inconclusive: -42.9% |
| Cc1ccc(C(=O)Nc2ccccc2C(=O)NC(C(=O)O)C(C)C)cc1 (stereo unspecified) | inconclusive: -71.8% |
| COc1ccc2nc(/C(C#N)=C\c3ccc(Oc4ccc([N+](=O)[O-])cn4)cc3)[nH]c2c1 | inactive: -10.3% |
| COC(=O)[C@H](CCSC)NC(=O)NC1CCN(Cc2ccccc2)CC1 | inconclusive: -35.2% |
| CCN1C(=O)C2C(c3cccc(F)c3)NC(CC)(C(=O)OC)C2C1=O (stereo unspecified) | inconclusive: -58.7% |
| CCCCCCCCCn1c2c(c(=N)c3c1CCC3)CCC2 | inactive: 26.1% |

| Compound | activity change (PNC), negative = inhibition |
| --- | --- |
| CC(N=Cc1ccccc1O)c1ccccc1 (stereo unspecified) | inactive: -14.2% |
| CCC(=O)Oc1ccc2ccccc2c1CNC(=O)c1ccccc1 | inconclusive: -62.7% |
| Cc1cc(C)c(S(=O)(=O)N(CC(=O)O)C2CCCCC2)c(C)c1 | active: -97.3% |
| O=C(Nc1ccccc1C(=O)N1CCOCC1)c1ccco1 | inconclusive: -35.3% |
| CCN(CC)c1ccc(/C=C/C(=O)c2ccc(Br)cc2)cc1 | inconclusive: -67.6% |
| COc1ccccc1C(=O)Nc1nnc(-c2ccc3c(c2)CCCC3)o1 | inactive: 2.28% |
| O=S(=O)(NCC1OCCc2ccccc21)c1ccccc1 (stereo unspecified) | inconclusive: -65.7% |
| CN(C)CCCOC(=O)c1ccc(Br)cc1 | inconclusive: -59% |
| O=C(N1CCCCC1)N1CCN(C(=O)N(c2ccccc2)c2ccccc2)CC1 | inactive: -1.21% |
| COCCCNC(=O)c1nc2c(nnn2Cc2cc(C)ccc2C)c(=O)[nH]1 | inactive: 80.3% |
| Cc1sc2nc(C(C)(C)C)oc(=O)c2c1C | inconclusive: -39.5% |
| CCc1cccc(NC(=O)CCC(=O)O)c1 | active: -102% |
| COc1cc(SC)ccc1C(=O)NCCOc1ccc(C)c(C)c1 | inconclusive: -57.6% |
| Cc1ccc(NC(=O)c2ccccc2NS(=O)(=O)c2ccc(Cl)s2)cc1 | active: -82.3% |
| Cc1scc(C(=O)Nc2ccon2)c1-c1ccccc1 | inconclusive: -49.1% |
| CC1CCCCN1S(=O)(=O)c1coc(C(N)=O)c1 (stereo unspecified) | inconclusive: -43.8% |
| C=CCSc1nn2c(=O)c3ccccc3nc2s1 | inactive: 4.28% |
| COc1ccccc1C(c1nnnn1Cc1ccco1)N1CCN(c2cccc(C)c2C)CC1 (stereo unspecified) | inconclusive: -38.2% |
| COc1ccc(CCNS(=O)(=O)c2ccc3c(c2)oc(=O)n3C)cc1OC | inconclusive: -70.4% |
| N#C/C(=C\c1ccc(Sc2ccccc2)o1)c1nc2ccccc2[nH]1 | inconclusive: -72.8% |
| Cc1noc(C(=O)N2CC3(C)CC2CC(C)(C)C3)c1Cl (stereo unspecified) | inconclusive: -34.4% |
| O=C(O)CCn1c(SCc2cccc3ccccc23)nc2ccccc21 | inactive: -25.3% |
| CCOC(=O)C1=C(N)OC2=C(C(=O)CCC2)C1c1cccnc1 (stereo unspecified) | active: -120% |

| Compound | activity change (PNC), negative = inhibition |
| --- | --- |
| COc1ccc(/C=C/C(=O)c2ccc3ccccc3c2O)cc1CN1CCOCC1 | inconclusive: -68.2% |
| CC1CCC2(CC1)NC(=O)N(CC(=O)Nc1nc(-c3ccc(F)cc3)cs1)C2=O (stereo unspecified) | inconclusive: -35.8% |
| CCc1c(C)c(C#N)c2nc3ccccc3n2c1NCC1CCCO1 (stereo unspecified) | inconclusive: -58% |
| CC(C)Sc1nc2sc3c(c2c2nnc(SCC(=O)NCc4ccco4)n12)CCCC3 | inconclusive: -53.3% |
| COc1ccccc1N1CCN(S(=O)(=O)c2ccc3nc(-c4ccccc4)[nH]c3c2)CC1 | active: -113% |
| COc1ccc(/C=N/N2CCN(c3ccccc3OC)CC2)cc1OC | inconclusive: -53.2% |
| Cc1c(-c2ccccc2)nc2ccccc2c1C(=O)NCc1cccs1 | inactive: -18% |
| CCOC(=O)c1sc(NC(=O)Nc2ccccc2)cc1C | inactive: -14.2% |
| Cc1ccc(CS(=O)(=O)CCC(=O)NCCCN2CCCC2=O)cc1 | inconclusive: -33.6% |
| CCCCCCn1c(CN2CCCCC2CC)nc2c1c(=O)n(C)c(=O)n2C (stereo unspecified) | inconclusive: -45.6% |
| CCn1ncc(/C=C/C(=O)c2ccccc2)c1C | inactive: 0.832% |
| Cc1sc(NC(=O)CN2CCOCC2)nc1-c1ccc2c(c1)CCN2S(=O)(=O)c1ccccc1 | inconclusive: -38.7% |
| Cn1c(=O)c2c(SCC(=O)N3CCOCC3)nc(CC(C)(C)C)nc2n(C)c1=O | inconclusive: -56.7% |
| Cc1noc(C(=O)N2CCN(c3ccc(F)cc3)CC2)c1Cl | inactive: 37.8% |
| CCn1nnnc1SCC(=O)N1c2ccccc2CCc2ccccc21 | inconclusive: -51.5% |
| CCC1(CC)C(=O)N(C)C(=O)NC1=NCc1ccccc1 | inconclusive: -68.6% |
| Cc1ccc(-n2c(Cc3cccn3C)nnc2SCC(=O)N2CCc3ccccc32)cc1 | inconclusive: -34.6% |
| O=c1c2ccccc2oc2nc(-c3ccco3)n(Cc3ccccc3)c(=O)c12 | inconclusive: -49.5% |
| Cc1nc2ccc(-c3nc4ccccc4o3)cc2[nH]1 | inconclusive: -55.4% |
| Cc1ccc(S(=O)(=O)N/N=C/C(C)(C)CO)cc1 | inconclusive: -39% |
| O=C(Nc1nnc(Cc2ccc(Cl)cc2)s1)c1ccco1 | inactive: 2.26% |
| CCOc1ccc(N=Cc2c(O)c3ccccc3oc2=O)cc1 | inconclusive: -48.7% |

Laid out differently: entries from further up.
Compound,"activity change (PNC), negative = inhibition"
Cc1noc(C(=O)N2CCN(c3ccc(F)cc3)CC2)c1Cl,inactive: 37.8%
CCn1nnnc1SCC(=O)N1c2ccccc2CCc2ccccc21,inconclusive: -51.5%
CCC1(CC)C(=O)N(C)C(=O)NC1=NCc1ccccc1,inconclusive: -68.6%
Cc1ccc(-n2c(Cc3cccn3C)nnc2SCC(=O)N2CCc3ccccc32)cc1,inconclusive: -34.6%
O=c1c2ccccc2oc2nc(-c3ccco3)n(Cc3ccccc3)c(=O)c12,inconclusive: -49.5%
Cc1nc2ccc(-c3nc4ccccc4o3)cc2[nH]1,inconclusive: -55.4%
